Experimental data published in publication PMC2883962.
These are yes or no findings as the source states them, for the method shown. In cells and extracts the contact can be indirect. Some entries that bind do so weakly or less than the wild type.

Chains of the proteins cited; added tags and fusions are not shown. Lines headed by an entry give the natural chain unless they say otherwise; changes in a name come on top.
UniProt Q04206: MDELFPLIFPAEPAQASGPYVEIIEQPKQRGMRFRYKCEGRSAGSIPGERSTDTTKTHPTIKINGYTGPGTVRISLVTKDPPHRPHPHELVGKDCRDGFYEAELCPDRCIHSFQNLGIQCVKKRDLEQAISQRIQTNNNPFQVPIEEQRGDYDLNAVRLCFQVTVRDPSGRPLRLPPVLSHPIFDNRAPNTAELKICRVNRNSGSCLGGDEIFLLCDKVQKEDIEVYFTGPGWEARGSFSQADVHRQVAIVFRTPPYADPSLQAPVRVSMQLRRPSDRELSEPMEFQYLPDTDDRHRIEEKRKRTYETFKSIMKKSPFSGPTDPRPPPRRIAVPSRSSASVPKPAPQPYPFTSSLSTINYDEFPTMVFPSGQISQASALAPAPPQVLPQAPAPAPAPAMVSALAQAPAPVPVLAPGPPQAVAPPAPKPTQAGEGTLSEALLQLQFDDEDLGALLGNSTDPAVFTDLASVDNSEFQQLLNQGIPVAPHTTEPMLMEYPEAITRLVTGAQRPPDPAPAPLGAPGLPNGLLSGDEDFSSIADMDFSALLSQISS

Target: T1, Par-4 overexpressed in HT29 cells from rat par-4 cDNA in pCB6+ (rat) (UniProt Q62627)
T1 sequence: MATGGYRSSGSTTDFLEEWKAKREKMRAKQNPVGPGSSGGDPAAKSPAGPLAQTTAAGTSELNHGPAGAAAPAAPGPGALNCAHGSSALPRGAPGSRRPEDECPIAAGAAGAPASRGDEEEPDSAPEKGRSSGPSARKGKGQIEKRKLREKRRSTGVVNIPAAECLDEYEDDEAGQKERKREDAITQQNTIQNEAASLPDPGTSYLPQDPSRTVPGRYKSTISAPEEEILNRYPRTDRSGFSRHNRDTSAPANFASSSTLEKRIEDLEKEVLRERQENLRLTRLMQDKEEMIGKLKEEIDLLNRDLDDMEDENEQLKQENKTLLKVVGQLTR
Test: co-IP; Par-4 antibody immunoprecipitation from nuclear and cytoplasmic fractions (NE-PER kit) of empty vector- and Par-4-transfected HT29 cells; immunoblot with p65 and IκB antibodies

NFκB (subunits p65 and p50) (from UniProt Q04206 1-551; P19838 1-433) (complex)
binding: binds
